These are yes or no findings as the source states them, for the method shown. In cells and extracts the contact can be indirect. Some binding calls cover weakened binding; strength is not graded here.
Experiments:
[1] = molecular target: STAT1-GFP, HEK-293T cells not treated with IFN (UniProt P42224); experiment: co-IP
[2] = molecular target: GFP-PCTD (P protein residues 174-297) (Rabies virus (RABV)) (UniProt Q9IPJ8); experiment: co-IP

Protein sequences, listed by entry. Tags and fused reporters are not part of them. Residues count along the entry.
UniProt P42224: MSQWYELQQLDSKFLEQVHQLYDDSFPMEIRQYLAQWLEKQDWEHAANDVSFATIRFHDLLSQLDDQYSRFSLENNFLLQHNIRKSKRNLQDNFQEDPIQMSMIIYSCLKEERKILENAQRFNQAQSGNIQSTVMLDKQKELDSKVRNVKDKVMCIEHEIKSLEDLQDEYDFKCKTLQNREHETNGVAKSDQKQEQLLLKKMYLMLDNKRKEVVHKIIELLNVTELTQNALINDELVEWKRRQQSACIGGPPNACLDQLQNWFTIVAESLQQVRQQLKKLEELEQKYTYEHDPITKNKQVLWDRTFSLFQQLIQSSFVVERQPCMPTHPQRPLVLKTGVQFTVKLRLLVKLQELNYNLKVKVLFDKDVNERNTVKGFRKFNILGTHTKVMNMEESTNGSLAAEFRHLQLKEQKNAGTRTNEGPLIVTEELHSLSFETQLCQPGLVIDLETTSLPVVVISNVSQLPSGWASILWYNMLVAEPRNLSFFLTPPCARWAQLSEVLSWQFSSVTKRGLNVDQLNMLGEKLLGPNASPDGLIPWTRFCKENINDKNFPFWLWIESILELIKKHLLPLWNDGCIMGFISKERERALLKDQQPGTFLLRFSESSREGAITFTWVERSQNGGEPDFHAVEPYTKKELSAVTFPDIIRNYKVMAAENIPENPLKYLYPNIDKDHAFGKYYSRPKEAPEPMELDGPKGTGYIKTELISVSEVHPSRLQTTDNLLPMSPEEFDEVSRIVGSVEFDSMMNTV
UniProt Q9IPJ8, residues 174-297: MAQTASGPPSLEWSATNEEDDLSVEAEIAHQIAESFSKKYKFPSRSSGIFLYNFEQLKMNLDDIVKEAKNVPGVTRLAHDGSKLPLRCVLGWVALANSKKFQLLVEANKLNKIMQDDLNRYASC
UniProt O55611: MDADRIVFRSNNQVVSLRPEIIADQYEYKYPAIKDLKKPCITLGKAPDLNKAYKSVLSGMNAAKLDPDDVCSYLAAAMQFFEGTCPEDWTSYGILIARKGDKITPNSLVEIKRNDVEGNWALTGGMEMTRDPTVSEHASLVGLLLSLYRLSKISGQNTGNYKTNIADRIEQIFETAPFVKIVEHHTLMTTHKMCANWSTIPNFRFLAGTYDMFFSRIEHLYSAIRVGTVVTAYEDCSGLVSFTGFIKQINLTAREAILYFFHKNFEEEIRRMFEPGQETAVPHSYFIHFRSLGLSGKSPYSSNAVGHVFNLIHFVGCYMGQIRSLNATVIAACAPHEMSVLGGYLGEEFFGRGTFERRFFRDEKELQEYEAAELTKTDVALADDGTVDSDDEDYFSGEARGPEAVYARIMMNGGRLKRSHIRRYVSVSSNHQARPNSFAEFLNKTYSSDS

Substance	binding [1]	binding [2]
FLAG-N protein (from UniProt O55611 1-450)	no binding	–
mCherry-N protein (from UniProt O55611 1-450)	–	binds

— paper PMC8291714
